Test results from patent publication US11304926B2, “Application of transient receptor potential cation channel TRPV3 in developing drug for preventing or treating psoriasis” (CHINA PHARMACEUTICAL UNIVERSITY, priority 2019, dated 2022).
At least one structure is not confirmed: it was looked up by name or label, or the drawing left a doubt.

What was measured:
[1] = system: mouse psoriasis model induced by 5% IMQ; experiment: PASI score of mouse psoriasis model induced by imiquimod under drug intervention; format: in vivo; conditions: subcutaneous injection, 5% IMQ model
From the text: 16 C57BL/6 mice, with half male and half female were purchased from the Experimental Animal Center of Nanjing Medical University, wherein weights of the mice ranged from 18 g to 20 g. Back hair of the mice was shaved off, and then the mice were randomly divided into 2 groups (8 mice in each group) according to male and female genders. Before experiment, the mice were placed in a quiet environment kept away from strong light for 3 days to adapt to the environment, a ratio of an illuminating time to a dark time was 1:1, a room temperature was controlled at 25° C., a humidity was 55%, and the mice could eat and drink freely. 62.5 mg of 5% (0.1 g:2 g) imiquimod ointment (Zhuhai United Laboratories Co., Ltd.) was continuously applied to back skins of the mice for 6 days to induce a psoriasis-like lesion, while the same dose of vaseline ointment was given to the control group.
The clinical symptom of the mouse psoriasis model was evaluated by a PASI scoring standard from three indicators of erythema, scale and infiltration thickening. The scores ranged from 0 point to 4 points, and a total score was obtained by adding scores of the three indicators. […]
Back skins of the mice were photographed and recorded on the 1st, 3rd and 5th days after modeling.

[2] = system: mouse psoriasis model induced by 5% IMQ; experiment: Histopathological examination (HE staining, epidermal thickness) of mouse psoriasis model under drug intervention; format: in vivo; conditions: subcutaneous injection, 5% IMQ model
From the text: After sacrifice of the mice, skin tissues were collected, fixed with 10% (mass fraction) paraformaldehyde solution, embedded in paraffin, and then subjected to 3 μm slicing and HE staining. An Eclipse Ti inverted microscope (Nikon Corporation, Tokyo, Japan) was used to observe and take a photo at 400-times magnification, and NIS-element BR software (Nikon Corporation, Tokyo, Japan) was used to measure an epidermal thickness of the skin. Six fields of view were randomly selected for each section. […] It should be noted that measurement data was represented by mean±standard deviation (mean±SD), and was detected by One-Way ANOVA, wherein ** represented that P<0.01, which was relative to the vaseline group.

Q: Which “occurrence of the lesion induced by imiquimod” value [1] does the source give for C[C@@H]1C[C@H]2[C@@H]3CCC4=CC(=O)C=C[C@]4(C)[C@@]3(F)[C@@H](O)C[C@]2(C)[C@@]1(O)C(=O)CO [Dexamethasone, dexamethasone, reference compound] here?
A: The value was “delay occurrence of the lesion”.

Q: And the “psoriasis-like lesion on the back skins of the mice (appearance)” value [1]?
A: The value was “could relieve the psoriasis-like lesion”.

Q: And the “epidermal thickness at lesion part” value [2]?
A: The value was “significantly reduce”.

Q: What about the “pathological changes of the skin induced by imiquimod” value [2] of the same molecule?
A: The value was “could improve the above pathological changes”.
